Laboratory results taken from patent US5610141 (dated 1997).

Assay: general procedure: Fmoc solid-phase peptide synthesis; Fmoc-Lys(Boc)-Sasrin polymer; Fmoc-amino acid pentafluorophenyl esters; DCC/HOBt; PyBOP
Details: whole synthesis, scale 0.6 mmol

## (pGlu-Glu-Asp)2 -(E)-DHs (Lys)2
  crude mass: yield 430 mg
  final purity (method not given): >95%
